From the supplement of paper PMC9135407
Where “and” joins values, the source holds several entries; their conditions need not be identical. Identical values can stand only once. Counter-ions that a name gives are not always drawn. ± gives the standard deviation of the averaged measurements. Some of the results follow. Part of the spread comes from offsets between plates or batches.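 Culture-activated primary human stellate myofibroblasts, where regained lipid droplets signal inactivation. Value: share of Hoechst-counted cells above a per-plate Bodipy cutoff, in duplicate wells, with DMSO negative and nortriptyline positive controls on each plate. Hits: a control-normalized score above the plate's top-tenth-percentile nortriptyline wells, or one of a plate's three best wells. Final well concentrations are not given.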

System: primary human hepatic stellate cells (donor 1)
Assay: percent Bodipy-positive cells; higher = more lipid droplet accumulation
Settings: 48 h
[1] = library stock concentration: 3.33 mM
[2] = library stock concentration: 10 mM
[3] = library stock concentration: 1 mM

## COc1ccc(NS(=O)(=O)c2ccc(N)cc2)nn1 [Sulfamethoxypyridazine]
  percent Bodipy-positive cells: 9.08 ± 5.5%
[1]
  percent Bodipy-positive cells: 12.8 ± 3.9%
Library stock concentration: 7.1 mM
  percent Bodipy-positive cells: 17.1 ± 8.6%
[2]
  percent Bodipy-positive cells: 35.3% and 28.8%

## CC1(C)OC(=O)NC1=O [Dimethadione]
  percent Bodipy-positive cells: 8.41 ± 0.58%
[2]
  percent Bodipy-positive cells: 10.7 ± 0.61%
Library stock concentration: 15.5 mM
  percent Bodipy-positive cells: 4 ± 0.52%

## N=C(N)NCC1COC2(CCCCC2)O1 (stereo not drawn) [Guanadrel sulfate]
  percent Bodipy-positive cells: 9.29 ± 0.25%

## N[C@@H](C(=O)O)c1ccc(C(=O)O)c(C(=O)O)c1
[2]
  percent Bodipy-positive cells: 7.46 ± 1.1%

## CNc1nc(Nc2cnn(C3CCN(C4COC4)CC3F)c2Cl)ncc1C(F)(F)F (stereo not drawn)
[1]
  percent Bodipy-positive cells: 21.5 ± 7.5%
[2]
  percent Bodipy-positive cells: 31.8 ± 6.5%

## CC(C)(C#N)c1ccc(N2C(=O)OCc3cnc4ccc(-c5cnc6ccccc6c5)cc4c32)cc1
[1]
  percent Bodipy-positive cells: 61.1 ± 11%
[2]
  percent Bodipy-positive cells: 87 ± 0.89%

## CC(=O)Oc1cccc2c1C(=O)c1c(OC(C)=O)cc(C(=O)O)cc1C2=O [Diacerein]
[1]
  percent Bodipy-positive cells: 10.8 ± 1.4%
[2]
  percent Bodipy-positive cells: 34 ± 0.66%

## Cc1ncc(CSSCc2cnc(C)c(O)c2CO)c(CO)c1O
[2]
  percent Bodipy-positive cells: 42.33 ± 0.31%

## O=C(O)c1ccc2ccccc2c1O.OCc1cc(C(O)CNCCCCCCOCCCCc2ccccc2)ccc1O (stereo not drawn) [Salmeterol xinafoate]
[2]
  percent Bodipy-positive cells: 91.9 ± 2%

## CCCCC(C)(O)C/C=C/[C@H]1[C@H](O)CC(=O)[C@@H]1CCCCCCC(=O)OC (stereo partly drawn) [Misoprostol (free acid)]
[3]
  percent Bodipy-positive cells: 17.9 ± 1.9%

## CCCCC(C)(O)C/C=C/[C@H]1[C@H](O)CC(=O)[C@@H]1CCCCCCC(=O)OC (stereo partly drawn) [Misoprostol]
[3]
  percent Bodipy-positive cells: 16.5 ± 3.8%
Library stock concentration: 5.2 mM
  percent Bodipy-positive cells: 10.4 ± 0.38%

## COc1ccc2c(c1)c(CC(=O)NCCc1ccccc1)c(C)n2C(=O)c1ccc(Cl)cc1 [N-(2-phenylethyl)-Indomethacin amide]
[3]
  percent Bodipy-positive cells: 13.8 ± 1.8%

## NC(C(=O)O)c1cc(O)cc(O)c1 (racemic)
[2]
  percent Bodipy-positive cells: 10.2 ± 1.6%

## CCCCCCCCCCCCCCCCCCCC(=O)NCCO [Arachidoyl Ethanolamide]
[3]
  percent Bodipy-positive cells: 9.6 ± 1.1%

## N=C(N)NC(=N)N1CCOCC1
[2]
  percent Bodipy-positive cells: 27.1 ± 2.5%

## N=C(N)NC(=N)N1CCOCC1 [Moroxydine HCl]
[1]
  percent Bodipy-positive cells: 4.09 ± 0.62%
Library stock concentration: 9.6 mM
  percent Bodipy-positive cells: 7.66 ± 2.6%
[2]
  percent Bodipy-positive cells: 12.7 ± 2.6%

## O=c1oc(Cl)c(Cl)c2ccccc12 [3,4-dichloroisocoumarin]
Library stock concentration: 23.3 mM
  percent Bodipy-positive cells: 97.7 ± 1.3%

## O=c1oc(Cl)c(Cl)c2ccccc12 [3,4-Dichloroisocoumarin]
[2]
  percent Bodipy-positive cells: 100%

## N[C@H]1C(O)O[C@H](CO)[C@@H](O)[C@@H]1O (stereo partly drawn) [Glucosamine hydrochloride]
Library stock concentration: 9.3 mM
  percent Bodipy-positive cells: 3.48 ± 1.8%
[2]
  percent Bodipy-positive cells: 17.4 ± 0.5%

## C=C1C[C@H]2[C@@H]3C=C(C)C4=CC(=O)CC[C@]4(C)[C@H]3CC[C@]2(C)[C@@]1(OC(C)=O)C(C)=O
[2]
  percent Bodipy-positive cells: 44.5 ± 3.7%

## C=C1C[C@H]2[C@@H]3C=C(C)C4=CC(=O)CC[C@]4(C)[C@H]3CC[C@]2(C)[C@@]1(OC(C)=O)C(C)=O [Melengestrol acetate]
Library stock concentration: 5 mM
  percent Bodipy-positive cells: 6.69 ± 5%

## CC(C)C[C@@H](C=O)NC(=O)[C@H](CC(C)C)NC(=O)[C@H](CC(C)C)NC(=O)OCc1ccccc1
[1]
  percent Bodipy-positive cells: 91.8 ± 10%
[2]
  percent Bodipy-positive cells: 99.22 ± 0.11%

## CS(=O)(=O)NC(=O)CCC/C=C\C[C@H]1C(=O)C[C@@H](O)[C@@H]1/C=C/[C@@H](O)COc1ccccc1 [Sulprostone]
[3]
  percent Bodipy-positive cells: 16.6 ± 1.1%

## Cc1ccc2c(Cl)cc(Cl)c(O)c2n1 [Chlorquinaldol]
[1]
  percent Bodipy-positive cells: 15.9 ± 11%
[2]
  percent Bodipy-positive cells: 58.2 ± 6.2%

## Cc1ccc2c(Cl)cc(Cl)c(O)c2n1
[2]
  percent Bodipy-positive cells: 28.8 ± 1.1%

## N=C(N)N/N=C/c1c(Cl)cccc1Cl [Guanabenz Acetate]
[1]
  percent Bodipy-positive cells: 19.45 ± 0.13%
[2]
  percent Bodipy-positive cells: 79.9 ± 9.6%

## N=C(N)N/N=C/c1c(Cl)cccc1Cl [Guanabenz acetate]
  percent Bodipy-positive cells: 53.6 ± 5.8%
Library stock concentration: 6.9 mM
  percent Bodipy-positive cells: 27.1 ± 9%
Library stock concentration: 8.7 mM
  percent Bodipy-positive cells: 29.9 ± 2.6%
[2]
  percent Bodipy-positive cells: 42.9% and 28%

## O=C(O)/C=C\C(=O)O.O=C(O)/C=C\C(=O)O.c1cc(CN2CCCCC2)cc(OCCCNc2nc3ccccc3s2)c1
[2]
  percent Bodipy-positive cells: 96.6 ± 1.2%

## N[C@H](C(=O)O)[C@H](OCc1ccccc1)C(=O)O (racemic)
[2]
  percent Bodipy-positive cells: 8.29 ± 0.66%

## OC(CCN1CCCCC1)(c1ccccc1)C1CCCCC1 (stereo not drawn) [Trihexyphenidyl-D,L Hydrochloride]
  percent Bodipy-positive cells: 34.8 ± 0.56%

## OC(CCN1CCCCC1)(c1ccccc1)C1CCCCC1 (stereo not drawn) [Trihexyphenidyl hydrochloride]
Library stock concentration: 5.9 mM
  percent Bodipy-positive cells: 46.4 ± 4.7%

## O=C(OCc1ccccc1)c1ccccc1 [Benzyl benzoate]
Library stock concentration: 9.4 mM
  percent Bodipy-positive cells: 22.7 ± 3.6%
[2]
  percent Bodipy-positive cells: 14.9 ± 2.7%

## N#C/C(=C\c1ccc(O)c(O)c1)C(=O)NCCCNC(=O)/C(C#N)=C/c1ccc(O)c(O)c1 [Tyrphostin AG 537]
[2]
  percent Bodipy-positive cells: 13.2 ± 10%

## C(=C/CCNC)(/c1c(cccc1)CC2)\c3c2cccc3 [Nortriptyline]
Library stock concentration: 7.6 mM
  percent Bodipy-positive cells: 71.7 ± 20%

## OC[C@H]1NC[C@@H](O)[C@@H](O)[C@@H]1O [1-Deoxymannojirimycin hydrochloride]
[2]
  percent Bodipy-positive cells: 7.44 ± 0.65%
Library stock concentration: 25.1 mM
  percent Bodipy-positive cells: 16.8 ± 3.8%

## CCCc1nc(C(C)(C)O)c(C(=O)O)n1Cc1ccc(-c2ccccc2-c2nnn[nH]2)cc1 [Olmesartan]
Library stock concentration: 3.6 mM
  percent Bodipy-positive cells: 13.6 ± 2.2%

## CN(C)CCOC(=O)COc1ccc(Cl)cc1 [Meclofenoxate (Centrophenoxine) HCl]
[1]
  percent Bodipy-positive cells: 14.9 ± 3%
[2]
  percent Bodipy-positive cells: 19.6 ± 4.3%
